Experimental data: PubChem BioAssay AID504804 (Drosophila RNAi Screening Center, 2011)
The screen tested about 19,000 reagents; this is a random part of those with a known target gene and a result. In the full data, 47 (0.25%) got an active call. 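Signals are raw, not normalised; exact z-scores behind calls not deposited; actives needed confirmation, so some wells reaching 2 SD are inactive.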 A number with no mark means an inactive call. A plus sign joins genes that one reagent is predicted to hit.

Assay: 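Fly genes whose loss lessens doxorubicin-driven cell death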 (primary screen)
Cells: Drosophila Kc cells
Knock-down reagent: long dsRNA against Drosophila genes, 0.5 µg dsRNA per well
Duration: 96 h (48 h knock-down, then 48 h drug)
Treatment: doxorubicin 5 µg/ml for 48 h, added 48 h after dsRNA
Detection: 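Luminescent ATP counts per replicate, not normalised, reflecting viable cells after 48 h dsRNA knock-down followed by 48 h of 5 µg/ml doxorubicin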
Direction: raw ATP luminescence: higher = more viable cells, protection from doxorubicin
Hit rule: 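z-score of 2 or more over plate mean in both duplicates, retained only when retests and separate dsRNAs confirm the protection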

| gene | amplicon | SD above plate mean | raw ATP luminescence, replicate 1 | raw ATP luminescence, replicate 2 |
| --- | --- | --- | --- | --- |
| CG1142 | DRSC12531 | – | 64867 | 54113 |
| sunz | DRSC12559 | 2 to 3 SD above plate mean (active) | 85560 | 89607 |
| CG1773 | DRSC06688 | – | 69807 | 57270 |
| CG17919 | DRSC12571 | – | 42067 | 36833 |
| Drat | DRSC06600 | – | 46100 | 44853 |
| CG6785 | DRSC02993 | – | 83213 | 58423 |
| Ocho | DRSC11239 | 2 to 3 SD above plate mean | 1.23e5 | 79947 |
| opa | DRSC12384 | – | 47050 | 54463 |
| Patsas | DRSC02975 | – | 89547 | 77560 |
| CG10086 | DRSC14183 | – | 61920 | 62487 |
| SLC5A11 | DRSC03088 | – | 1.01e5 | 62770 |
| CG11342 | DRSC08175 | – | 62143 | 73680 |
| CG13557 | DRSC04195 | – | 60473 | 63147 |
| tai | DRSC02207 | – | 15677 | 30760 |
| tai | DRSC02673 | – | 40933 | 87043 |
| RpS3A | DRSC17168 | – | 25400 | 23220 |
| Phb2 | DRSC06512 | – | 2.05e5 | 1.88e5 |
| dgt3 | DRSC04349 | – | 63680 | 65577 |
| Cdk7 | DRSC18451 | – | 41160 | 54290 |
| ZnT35C | DRSC01959 | – | 61540 | 73160 |
| CG2611 | DRSC02710 | – | 54773 | 65370 |
| Gr97a | DRSC13802 | – | 2.29e5 | 2.10e5 |
| CG10077 | DRSC09691 | – | 43017 | 40940 |
| CG6614 | DRSC02974 | – | 79463 | 68877 |
| CG34200 | DRSC04804 | – | 87213 | 94897 |
| CG14929 + CG4970 + CG14930 | DRSC02412 | – | 45007 | 88017 |
| CG10598 | DRSC19358 | – | 2.08e5 | 2.31e5 |
| Raf | DRSC18821 | – | 42520 | 59120 |
| Gs1 | DRSC00753 | – | 1.04e5 | 88433 |
| CG6149 | DRSC10593 | – | 54340 | 55163 |
| Elk | DRSC07608 | – | 68670 | 65073 |
| CG11298 | DRSC04100 | – | 83800 | 40270 |
| CG43102 | DRSC14797 | – | 44760 | 37560 |
| CG43102 | DRSC16239 | – | 31880 | 35590 |
| GABA-B-R2 | DRSC14134 | – | 51013 | 48330 |
| CG11149 | DRSC02130 | – | 32920 | 28587 |
| l(3)80Fj | DRSC20986 | – | 2.04e5 | 1.92e5 |
| l(3)80Fj | DRSC20989 | – | 2.87e5 | 2.90e5 |
| CG30413 | DRSC04001 | – | 88343 | 89380 |
| CG6712 | DRSC02981 | 2 to 3 SD above plate mean (active) | 1.49e5 | 1.05e5 |
| CG18417 | DRSC10319 | – | 1.09e5 | 89170 |
| CG32425 | DRSC11739 | – | 40250 | 35887 |
| CG32425 | DRSC11764 | – | 41137 | 37487 |
| ATPsynGL | DRSC03027 | – | 43450 | 68987 |
| Cluap1 | DRSC20637 | – | 3.63e5 | 3.46e5 |
| CG3592 | DRSC18315 | – | 58100 | 54280 |
| Coq3 | DRSC03168 | – | 75423 | 63377 |
| emp | DRSC04019 | – | 89353 | 89263 |
| emp | DRSC04683 | – | 71073 | 81893 |
| CG42502 + CG10570 | DRSC02071 | – | 84830 | 48690 |
| COX1 (retired record) | DRSC21275 | – | 3.39e5 | 3.25e5 |
| spidey | DRSC17932 | – | 38550 | 41910 |
| CG3690 | DRSC18170 | – | 57560 | 64590 |
| CG3690 | DRSC18641 | – | 57850 | 53560 |
| RpS25 | DRSC16837 | – | 47363 | 35700 |
| CG13501 | DRSC04146 | – | 55660 | 56740 |
| shn | DRSC05266 | – | 79777 | 86210 |
| shn | DRSC07681 | – | 70593 | 58267 |
